The target in test [1] is Flag-Rab2A, purified protein (mouse) (UniProt P53994). The test is described as follows: pull-down; in vitro binding assay with purified GST-HSD17B13 and Flag-Rab2A proteins; beads not told; both purified.
In test [2] the target is 3*Flag-Rab2A (Mouse) (mouse) (UniProt P53994). Nature of the test: co-IP; HEK293T cells transfected with Flag-Rab2A and MYC-HSD17B13 plasmids, Flag-affinity beads pulldown.
Test [3] deals with Rab2A, wild type, expressed from a plasmid in HEK293T cells (tag not told) (mouse) (UniProt P53994). The test is described as follows: co-IP; HEK293T cells transfected with Rab2A plasmids with or without HSD17B13 plasmids, with or without A769662 (100 μM, 4 h, DMEM without FBS), EGFP-affinity beads pulldown.
Test [4] shares this target. Nature of the test: co-IP; HEK293T cells transfected with 'relative plasmids', Western blotting; beads and tags not told. On the technique in general: In western blotting, separated proteins are transferred to a membrane and probed.
Test [5] concerns the target Rab2A (Δ032-042) (mouse) (UniProt P53994). The test is described as above.

Sequences of proteins named here, by UniProt entry; tags and fusion partners are left off. A change or cut given only in a name is not applied to a line headed by its entry.
UniProt P53994: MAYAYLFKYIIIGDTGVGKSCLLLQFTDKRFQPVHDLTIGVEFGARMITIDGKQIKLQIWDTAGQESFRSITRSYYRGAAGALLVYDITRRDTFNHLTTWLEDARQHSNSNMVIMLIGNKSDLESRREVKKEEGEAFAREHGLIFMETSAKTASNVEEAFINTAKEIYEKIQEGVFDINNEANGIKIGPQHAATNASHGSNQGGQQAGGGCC
UniProt Q8VCR2: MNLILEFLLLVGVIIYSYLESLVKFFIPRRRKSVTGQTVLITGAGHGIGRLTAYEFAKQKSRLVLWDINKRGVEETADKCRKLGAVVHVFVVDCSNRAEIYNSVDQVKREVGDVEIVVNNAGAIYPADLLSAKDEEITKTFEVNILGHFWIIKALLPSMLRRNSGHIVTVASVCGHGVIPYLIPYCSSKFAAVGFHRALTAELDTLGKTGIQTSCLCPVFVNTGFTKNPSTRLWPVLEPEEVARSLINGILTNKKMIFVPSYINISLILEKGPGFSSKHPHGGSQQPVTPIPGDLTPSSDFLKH

In publication PMC11649929 one finds binding data, which are given here for three substances.

No constants are given. Whether binding was seen depends on the method and setting. For some assays here: Binding calls can cover weak binding; strength is not graded here. For some assays here: Binding seen in cells or lysates may run through a third protein.

Consider “GST-HSD17B13 (Mouse), purified protein (from UniProt Q8VCR2)”, for which the binding result in test [1] is reported as “binds”.

Regarding “5*MYC-HSD17B13 (Mouse) (from UniProt Q8VCR2)”, in test [2], the binding entry is listed as “binds”. In the case of “HSD17B13 expressed from a plasmid in HEK293T cells (tag not told) (from UniProt Q8VCR2)”, the binding entry in test [3] is “binds”; in test [4] it was “binds”; in test [5], “no binding”.
